According to the supplement of paper PMC4604168 (melanoma cell lines):
The list shows a part of the results. Single values are uncertain, as repeats are few or missing.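 Imaging used 1,536-well plates; nuclei positive for cleaved PARP by antibody were divided by total DNA-stained nuclei to yield the apoptosis fraction. Doses for screening kept most cells viable, and cell lines differ markedly in resting and induced cleaved-PARP levels.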

Assays:
Assay in all cases: cleaved PARP positive nuclei fraction relative to DMSO control; melanoma cells; higher = more apoptosis
Settings in all cases: library dose: low library concentration; 72 h
MZ2-MEL = test system: MZ2-MEL
MeWo = test system: MeWo
RPMI7951 = test system: RPMI7951
RVH-421 = test system: RVH-421
SkMel28 = test system: SkMel28
SkMel2 = test system: SkMel2
SkMel30 = test system: SkMel30
UACC62 = test system: UACC62

SMILES | cleaved PARP positive nuclei fraction (MZ2-MEL) [%] | cleaved PARP positive nuclei fraction (MeWo) [%] | cleaved PARP positive nuclei fraction (RPMI7951) [%] | cleaved PARP positive nuclei fraction (RVH-421) [%] | cleaved PARP positive nuclei fraction (SkMel28) [%] | cleaved PARP positive nuclei fraction (SkMel2) [%] | cleaved PARP positive nuclei fraction (SkMel30) [%] | cleaved PARP positive nuclei fraction (UACC62) [%]
Cn1cnc2c(F)c(Nc3ccc(Br)cc3Cl)c(C(=O)NOCCO)cc21 [selumetinib] + C[C@@H](Oc1cc(-c2cnn(C3CCNCC3)c2)cnc1N)c1c(Cl)ccc(F)c1Cl [Crizotinib] (first compound 0.015 µM, partner dose 0.2 µM) | 323 | 190 | 21.3 | 128 | 165 | 149 | 151 | 212
COc1ccc(C2=N[C@@H](c3ccc(Cl)cc3)[C@@H](c3ccc(Cl)cc3)N2C(=O)N2CCNC(=O)C2)c(OC(C)C)c1 [Nutlin-3] + C[C@]1(c2nc3c(C(N)=O)cccc3[nH]2)CCCN1 [Veliparib] (first compound 0.1 µM, partner dose 1.4 µM) | 127 | 98.9 | 47.6 | 111 | 47 | 132 | 62.5 | 191
NC1(c2ccc(-c3nc4ccn5c(=O)[nH]nc5c4cc3-c3ccccc3)cc2)CCC1 + CN1CCN(c2ccc3nc(-c4c(N)c5c(F)cccc5[nH]c4=O)[nH]c3c2)CC1 [Dovitinib] (first compound 0.4 µM, partner dose 0.1 µM) | 27.2 | 61.7 | 45.2 | 143 | 141 | 48.5 | 68.7 | 308
CC1(C)CCC(c2ccc(Cl)cc2)=C(CN2CCN(c3ccc(C(=O)NS(=O)(=O)c4ccc(N[C@H](CCN5CCOCC5)CSc5ccccc5)c(S(=O)(=O)C(F)(F)F)c4)cc3)CC2)C1 + NC1(c2ccc(-c3nc4ccn5c(=O)[nH]nc5c4cc3-c3ccccc3)cc2)CCC1 [MK2206] (first compound 0.4 µM, partner dose 0.4 µM) | 321 | 348 | 616 | 89.1 | 63.2 | 166 | 229 | 109
CCCCCCCCc1ccc(CCC(N)(CO)CO)cc1 [fingolimod] + C[C@@H](Oc1cc(-c2cnn(C3CCNCC3)c2)cnc1N)c1c(Cl)ccc(F)c1Cl [Crizotinib] (first compound 2 µM, partner dose 0.2 µM) | 34.5 | 124 | 70.2 | 192 | 71.9 | 158 | 14.7 | 54.6
CN(c1ncccc1CNc1nc(Nc2ccc3c(c2)CC(=O)N3)ncc1C(F)(F)F)S(C)(=O)=O + Cn1nnc2c(C(N)=O)ncn2c1=O [temozolomide] (first compound 0.08 µM, partner dose 2 µM) | 141 | 58.1 | 578 | 66.7 | 187 | 63.9 | 97.8 | 126
CCCCCCCCc1ccc(CCC(N)(CO)CO)cc1 [fingolimod] + Cn1nnc2c(C(N)=O)ncn2c1=O [temozolomide] (first compound 2 µM, partner dose 2 µM) | 66.1 | 95 | 38.4 | 83.4 | 138 | 62.4 | 68.4 | 183
C[C@]1(O)C[C@@H](c2nc(-c3ccc4ccc(-c5ccccc5)nc4c3)c3c(N)nccn32)C1 + Nc1ncn([C@H]2C[C@H](O)[C@@H](CO)O2)c(=O)n1 [decitabine] (first compound 0.4 µM, partner dose 0.1 µM) | 43.2 | 167 | 71.2 | 150 | 62.9 | 53.9 | 140 | 87.7
CS(=O)(=O)c1ccc(C(=O)Nc2ccc(Cl)c(-c3ccccn3)c2)c(Cl)c1 [vismodegib] + Cn1c(=O)n(-c2ccc(C(C)(C)C#N)cc2)c2c3cc(-c4cnc5ccccc5c4)ccc3ncc21 [NVP-BEZ235] (first compound 1 µM, partner dose 0.004 µM) | 63.1 | 75.5 | 132 | 36.1 | 39.9 | 94.2 | 90.9 | 108
CS(=O)(=O)c1ccc(C(=O)Nc2ccc(Cl)c(-c3ccccn3)c2)c(Cl)c1 [vismodegib] + O=C(O)[C@@H]1[O][Sb](=[O])([O][Sb]2(=[O])[O][C@H]([C@H](O)CO)[C@H](O)[C@H](C(=O)O)[O]2)[O][C@H]([C@H](O)CO)[C@@H]1O [stibogluconate] (first compound 1 µM, partner dose 2 µM) | 69.9 | 41.9 | 61.3 | 92.9 | 48.5 | 133 | 36.4 | 117
COc1ccc(C2=N[C@@H](c3ccc(Cl)cc3)[C@@H](c3ccc(Cl)cc3)N2C(=O)N2CCNC(=O)C2)c(OC(C)C)c1 [Nutlin-3] + CCN(CC)CCNC(=O)c1c(C)[nH]c(/C=C2\C(=O)Nc3ccc(F)cc32)c1C [sunitinib] (first compound 0.1 µM, partner dose 0.4 µM) | 125 | 186 | 99.6 | 107 | 90.9 | 106 | 89.3 | 102
CN(c1ncccc1CNc1nc(Nc2ccc3c(c2)CC(=O)N3)ncc1C(F)(F)F)S(C)(=O)=O + NC1(c2ccc(-c3nc4ccn5c(=O)[nH]nc5c4cc3-c3ccccc3)cc2)CCC1 [MK2206] (first compound 0.08 µM, partner dose 0.4 µM) | 205 | 62.4 | 48.1 | 127 | 29.5 | 123 | 159 | 55.1
CN(c1ncccc1CNc1nc(Nc2ccc3c(c2)CC(=O)N3)ncc1C(F)(F)F)S(C)(=O)=O + Cn1c(=O)n(-c2ccc(C(C)(C)C#N)cc2)c2c3cc(-c4cnc5ccccc5c4)ccc3ncc21 [NVP-BEZ235] (first compound 0.08 µM, partner dose 0.004 µM) | 79.4 | 470 | 288 | 70.5 | 111 | 89.2 | 92.4 | 192
Cn1sc(=O)n(Cc2ccccc2)c1=O + Cc1nc(Nc2ncc(C(=O)Nc3c(C)cccc3Cl)s2)cc(N2CCN(CCO)CC2)n1 [dasatanib] (first compound 0.4 µM, partner dose 0.004 µM) | 23.2 | 93.6 | 84.4 | 177 | 90.2 | 36.5 | 128 | 336
C[C@@H](N)c1ccc(C(=O)Nc2ccnc3[nH]ccc23)cc1 + Cn1cnc2c(F)c(Nc3ccc(Br)cc3Cl)c(C(=O)NOCCO)cc21 [selumetinib] (first compound 0.4 µM, partner dose 0.015 µM) | 274 | 555 | 109 | 324 | 257 | 68.2 | 306 | 108
NC(=O)c1ccc(N(C(N)=O)c2c(F)cccc2F)nc1-c1ccc(F)cc1F + Nc1ncn([C@H]2C[C@H](O)[C@@H](CO)O2)c(=O)n1 [decitabine] (first compound 0.4 µM, partner dose 0.1 µM) | 167 | 116 | 47.5 | 280 | 90.1 | 86.9 | 44 | 120
NC(=O)c1ccc(N(C(N)=O)c2c(F)cccc2F)nc1-c1ccc(F)cc1F + Cn1c(Nc2ccc(C(F)(F)F)cc2)nc2cc(Oc3ccnc(-c4ncc(C(F)(F)F)[nH]4)c3)ccc21 [CHIR265] (first compound 0.4 µM, partner dose 0.08 µM) | 86.4 | 91.9 | 51.2 | 78 | 93.8 | 169 | 72.4 | 158
CCN(CC)CCNC(=O)c1c(C)[nH]c(/C=C2\C(=O)Nc3ccc(F)cc32)c1C [sunitinib] + CN(c1ncccc1CNc1nc(Nc2ccc3c(c2)CC(=O)N3)ncc1C(F)(F)F)S(C)(=O)=O [PF562271] (first compound 0.4 µM, partner dose 0.08 µM) | 106 | 58.9 | 38.9 | 271 | 44 | 63.3 | 56.3 | 230
CCCCCCCCc1ccc(CCC(N)(CO)CO)cc1 [fingolimod] + CS(=O)(=O)CCNCc1ccc(-c2ccc3ncnc(Nc4ccc(OCc5cccc(F)c5)c(Cl)c4)c3c2)o1 [lapatinib] (first compound 2 µM, partner dose 0.8 µM) | 128 | 106 | 95.3 | 131 | 95.7 | 30 | 21.3 | 80.6
CCCCCCCCc1ccc(CCC(N)(CO)CO)cc1 [fingolimod] + Nc1ccn([C@@H]2O[C@H](CO)[C@@H](O)C2(F)F)c(=O)n1 [gemcitabine] (first compound 2 µM, partner dose 0.0004 µM) | 107 | 77.4 | 227 | 36.8 | 95.2 | 30.5 | 105 | 143
COc1ccc(C2=N[C@@H](c3ccc(Cl)cc3)[C@@H](c3ccc(Cl)cc3)N2C(=O)N2CCNC(=O)C2)c(OC(C)C)c1 [Nutlin-3] + O=C(O)[C@@H]1[O][Sb](=[O])([O][Sb]2(=[O])[O][C@H]([C@H](O)CO)[C@H](O)[C@H](C(=O)O)[O]2)[O][C@H]([C@H](O)CO)[C@@H]1O [stibogluconate] (first compound 0.1 µM, partner dose 2 µM) | 140 | 61.8 | 104 | 316 | 98.9 | 105 | 212 | 128
CC1(C)CCC(c2ccc(Cl)cc2)=C(CN2CCN(c3ccc(C(=O)NS(=O)(=O)c4ccc(N[C@H](CCN5CCOCC5)CSc5ccccc5)c(S(=O)(=O)C(F)(F)F)c4)cc3)CC2)C1 + CC(C)C[C@H](NC(=O)[C@H](Cc1ccccc1)NC(=O)c1cnccn1)B(O)O [Bortezomib] (first compound 0.4 µM, partner dose 0.001 µM) | 133 | 1400 | 387 | 180 | 43.8 | 113 | 334 | 130
CC1(C)CCC(c2ccc(Cl)cc2)=C(CN2CCN(c3ccc(C(=O)NS(=O)(=O)c4ccc(N[C@H](CCN5CCOCC5)CSc5ccccc5)c(S(=O)(=O)C(F)(F)F)c4)cc3)CC2)C1 + Cn1c(=O)n(-c2ccc(C(C)(C)C#N)cc2)c2c3cc(-c4cnc5ccccc5c4)ccc3ncc21 [NVP-BEZ235] (first compound 0.4 µM, partner dose 0.004 µM) | 258 | 483 | 255 | 107 | 83 | 473 | 133 | 146

Four consecutive entries already listed, quoted:
SMILES | cleaved PARP positive nuclei fraction (MZ2-MEL) [%] | cleaved PARP positive nuclei fraction (MeWo) [%] | cleaved PARP positive nuclei fraction (RPMI7951) [%] | cleaved PARP positive nuclei fraction (RVH-421) [%] | cleaved PARP positive nuclei fraction (SkMel28) [%] | cleaved PARP positive nuclei fraction (SkMel2) [%] | cleaved PARP positive nuclei fraction (SkMel30) [%] | cleaved PARP positive nuclei fraction (UACC62) [%]
CN(c1ncccc1CNc1nc(Nc2ccc3c(c2)CC(=O)N3)ncc1C(F)(F)F)S(C)(=O)=O + Cn1c(=O)n(-c2ccc(C(C)(C)C#N)cc2)c2c3cc(-c4cnc5ccccc5c4)ccc3ncc21 [NVP-BEZ235] (first compound 0.08 µM, partner dose 0.004 µM) | 79.4 | 470 | 288 | 70.5 | 111 | 89.2 | 92.4 | 192
Cn1sc(=O)n(Cc2ccccc2)c1=O + Cc1nc(Nc2ncc(C(=O)Nc3c(C)cccc3Cl)s2)cc(N2CCN(CCO)CC2)n1 [dasatanib] (first compound 0.4 µM, partner dose 0.004 µM) | 23.2 | 93.6 | 84.4 | 177 | 90.2 | 36.5 | 128 | 336
C[C@@H](N)c1ccc(C(=O)Nc2ccnc3[nH]ccc23)cc1 + Cn1cnc2c(F)c(Nc3ccc(Br)cc3Cl)c(C(=O)NOCCO)cc21 [selumetinib] (first compound 0.4 µM, partner dose 0.015 µM) | 274 | 555 | 109 | 324 | 257 | 68.2 | 306 | 108
NC(=O)c1ccc(N(C(N)=O)c2c(F)cccc2F)nc1-c1ccc(F)cc1F + Nc1ncn([C@H]2C[C@H](O)[C@@H](CO)O2)c(=O)n1 [decitabine] (first compound 0.4 µM, partner dose 0.1 µM) | 167 | 116 | 47.5 | 280 | 90.1 | 86.9 | 44 | 120
